For one substance, binding results are on record in PMC12376529.

By UniProt entry, the sequences of proteins in these tests, tags left out.
UniProt O94901: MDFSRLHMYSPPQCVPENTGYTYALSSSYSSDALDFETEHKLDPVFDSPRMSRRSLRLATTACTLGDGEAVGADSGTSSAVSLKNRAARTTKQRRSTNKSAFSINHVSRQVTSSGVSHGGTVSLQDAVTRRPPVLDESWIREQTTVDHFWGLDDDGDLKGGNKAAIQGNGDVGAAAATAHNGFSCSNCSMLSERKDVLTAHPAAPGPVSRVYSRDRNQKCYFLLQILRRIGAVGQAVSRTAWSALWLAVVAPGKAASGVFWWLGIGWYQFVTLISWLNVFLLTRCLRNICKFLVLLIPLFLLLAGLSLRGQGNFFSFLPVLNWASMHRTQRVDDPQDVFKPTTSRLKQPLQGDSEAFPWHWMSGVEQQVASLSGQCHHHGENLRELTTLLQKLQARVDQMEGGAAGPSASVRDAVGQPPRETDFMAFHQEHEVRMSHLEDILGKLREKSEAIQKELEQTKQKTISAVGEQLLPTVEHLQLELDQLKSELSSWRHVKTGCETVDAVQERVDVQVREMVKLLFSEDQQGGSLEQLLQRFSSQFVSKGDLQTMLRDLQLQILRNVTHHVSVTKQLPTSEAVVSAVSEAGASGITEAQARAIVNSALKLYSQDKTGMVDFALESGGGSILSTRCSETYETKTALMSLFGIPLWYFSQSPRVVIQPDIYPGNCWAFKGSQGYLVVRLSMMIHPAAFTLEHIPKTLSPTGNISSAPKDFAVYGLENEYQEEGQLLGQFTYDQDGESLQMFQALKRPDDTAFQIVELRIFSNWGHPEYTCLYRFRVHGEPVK

These are yes or no findings as the source states them, for the method shown. Binding seen in cells or lysates may run through a third protein. Some binding calls cover weakened binding; strength is not graded here.

This test addresses nesprin 2 (human (endogenous in HeLa)) (UniProt Q8WXH0). Kind of test: proximity ligation; in situ Duolink PLA on fixed (4% paraformaldehyde), permeabilised (0.1% Triton X-100) progerin Tet-On HeLa cells, before and after doxycycline; anti-SUN1 with anti-Lamin A/C or anti-Nesprin 2; number and total intensity of dots per nucleus.

For the substance SUN1 (from UniProt O94901 1-785), the binding entry is given as “binds”.
